# Measurements published in PubChem BioAssay AID2685 (National Center for Advancing Translational Sciences (NCATS), 2010).
# Some of the results follow. Shown are side measurements of this screen, not its main read-out; they come without a call. Most of these compounds were active or inconclusive in the main read-out, so they are no random draw. Potencies come from curve fits of mixed quality, noted in brackets.
# Assay: qHTS Assay for Lipid Storage Modulators in Drosophila S3 Cells;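 as to cell number change: cells counted by Cell Tracker Red CMTPX staining in the red channel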
# Conditions: BODIPY lipid droplet fluorescence, 18-24 h; for cell number change: measured here: cell count max response, cells fed with added oleic acid
# Outline: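 Drosophila S3 cells got compounds at several concentrations plus oleic acid (400 uM solution). Laser-scanning cytometry with 488 nm excitation read lipid droplets at 500-530 nm and cells at 575-640 nm. Percent activity was relative to 20 uM Triacsin C.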
# [1] = measured here: lipid fluorescence (Fed channel) AC50, cells fed with added oleic acid
# [2] = measured here: cell number channel AC50, cells fed with added oleic acid
SMILES,cell number change [%],AC50 [1],AC50 [2]
CCCC(=O)N(Cc1cc2cc(C)ccc2[nH]c1=O)c1ccccc1OC,18.2,"18.4 µM [rising, single point]",–
O=C(Nc1ccccc1)c1ccc(Br)c(S(=O)(=O)Nc2cccnc2)c1,-13.1,"20.6 µM [rising, partial curve]",–
NC(=O)Cn1nc([N+](=O)[O-])nc1Oc1ccccc1C(=O)N1CCOCC1,–,"29.1 µM [falling, single point]",–
CC1Cc2ccccc2N1C(=O)COC(=O)c1ccc(Br)o1 (configuration not stated),32.3,–,"29.1 µM [rising, single point]"
CCCCOC(=O)NC1CCS(=O)(=O)C1 (configuration not stated),12.2,–,–
Cc1c(Cc2ccccc2)c(=O)oc2cc(OCC(=O)NCc3ccccn3)ccc12,-10.7,–,–
COc1ccccc1CCNC(=O)c1cccc(S(=O)(=O)NCc2ccccc2)c1,39.3,"3.66 µM [rising, partial curve, poor fit]","1.03 µM [rising, partial curve, poor fit]"
COc1ccc(CN(CC(=O)NCCc2ccccc2)C(=O)CCC(=O)Nc2cc(C)ccn2)cc1,24.4,"29.1 µM [falling, single point]","0.651 µM [rising, full curve, poor fit]"
CC(Cc1ccccc1)NC(=O)CSc1nc2nc3c(cc2c(=O)n1-c1ccccc1)COC(C)(C)C3 (configuration not stated),-5.2,–,–
Cc1ccc(N2C(=O)C3C4C=CC(C4)C3C2=O)cc1C (configuration not stated),-6.42,–,–
O=C(c1cnn2c(C(F)(F)F)cc(-c3cccs3)nc12)N1CCCC1,26.5,–,–
Cc1ccc(C(=O)CCNc2ccc(Cl)cc2)o1,–,"29.1 µM [rising, single point]","0.82 µM [rising, single point]"
CCC(CC)COC(=O)C1=C(C)NC(=O)NC1c1ccc([N+](=O)[O-])cc1 (configuration not stated),-26.4,"29.1 µM [falling, single point]",–
COc1cc(S(=O)(=O)N2CCCCCC2)ccc1-n1cnnn1,–,"0.291 µM [falling, partial curve, poor fit]",–
Cc1ccc(C(=O)c2ccccc2C(=O)OCC(=O)N2C(C)CCCC2C)cc1 (configuration not stated),15.8,"2.59 µM [rising, full curve, poor fit]",–
COc1ccccc1C(=O)NCCC(=O)Nc1ccc(S(=O)(=O)N2CC(C)CC(C)C2)cc1 (configuration not stated),3.01,–,–
O=C(COc1ccc(S(=O)(=O)NCc2ccccc2)cc1Cl)NCC1CCCO1 (configuration not stated),31,–,"20.6 µM [rising, single point]"
COc1ccc(CC2S/C(=C(\C#N)C(=O)NCc3ccco3)N(c3ccc(C)cc3)C2=O)cc1 (configuration not stated),2.84,"29.1 µM [rising, single point]",–
COCCOC1CCN(C(=O)c2ccc(OC)c(OC3CCN(C(C)C)CC3)c2)CC1,3.98,"6.51 µM [falling, single point]",–
COc1cc(C(=O)N2CCN(c3ccccc3Cl)CC2)ccc1OCC(=O)N1CCOCC1,1.9,"18.4 µM [falling, single point]",–
Cc1cccc(NC(=O)C2C3CCCCC32)c1 (configuration not stated),0.246,–,–

# Exported bar-delimited: part of the list above
SMILES | cell number change [%] | AC50 [1] | AC50 [2]
NC(=O)Cn1nc([N+](=O)[O-])nc1Oc1ccccc1C(=O)N1CCOCC1 | – | 29.1 µM [falling, single point] | –
CC1Cc2ccccc2N1C(=O)COC(=O)c1ccc(Br)o1 (configuration not stated) | 32.3 | – | 29.1 µM [rising, single point]
CCCCOC(=O)NC1CCS(=O)(=O)C1 (configuration not stated) | 12.2 | – | –
Cc1c(Cc2ccccc2)c(=O)oc2cc(OCC(=O)NCc3ccccn3)ccc12 | -10.7 | – | –

# Going on with the list.

SMILES,cell number change [%],AC50 [1],AC50 [2]
Cc1ccc(-n2ncc3c2CCCC3NC(=O)c2ccccc2N2CCOCC2)cc1C (configuration not stated),-42.2,–,"16.4 µM [falling, single point]"
COc1ccccc1C1(CC(=O)N2CCOCC2)CCOC(C(C)C)C1 (configuration not stated),58.1,–,"0.291 µM [rising, full curve]"
CCSC1=C(C#N)C2(CCCCC2)C(C#N)=C(N)N1,-57.9,–,"13 µM [falling, partial curve]"
COC(=O)c1cccc(NC(=O)CC2NCCNC2=O)c1 (configuration not stated),-3.12,"0.731 µM [falling, full curve, poor fit]",–
CCOC(=O)CNc1ncnc2nc[nH]c12,–,"6.51 µM [falling, single point]",–
O=c1c2ccccc2nc2n1CCN2,-11.7,–,"3.26 µM [falling, single point]"
COc1ccc(CCNC(=O)C(=O)NCC2OCCN2S(=O)(=O)c2ccc(F)cc2)cc1OC (configuration not stated),4.9,"29.1 µM [falling, single point]",–
Cc1ccc(S(=O)(=O)N2CCN(C(=O)Cc3ccc(S(=O)(=O)N4CCOCC4)s3)CC2)cc1,9.91,–,"0.00461 µM [rising, full curve, poor fit]"
CC(=O)Nc1c(C#N)c(C(C)(C)C)cn1C,-22,"0.731 µM [falling, full curve]",–
O=C(Cn1c(=O)cnc2ccccc21)NNC(=O)c1ccc(Cl)cc1,1.1,"29.1 µM [rising, single point]",–
CCN(CC(=O)NCCCN1CCOCC1)S(=O)(=O)c1ccc(F)cc1,-31.4,–,"0.116 µM [falling, full curve, poor fit]"
O=C(Nc1ccccc1)c1ccc(OC(=O)c2cc3ccccc3o2)cc1,-38.6,"29.1 µM [falling, single point]",–
O=C(O)c1ccccc1C(=O)NC1CCCCNC1=O (configuration not stated),–,"0.13 µM [falling, full curve, poor fit]","0.116 µM [falling, full curve, poor fit]"
O=S(=O)(c1ccc(F)cc1)c1nc(-c2ccccc2)oc1N1CCOCC1,-36.6,–,"32.6 µM [falling, single point]"
COc1ccc(CCNC(=O)CN2CCN(c3cccc(C(F)(F)F)c3)CC2)cc1,61.7,"0.82 µM [falling, full curve]","16.4 µM [rising, single point]"
Cc1ccc2oc(C(=O)Nc3cc(C)on3)c(C)c2c1,-2.01,"0.517 µM [rising, full curve]",–
COc1ccc(S(=O)(=O)N2CCCCC2)cc1NC(=O)c1ccc(N2CCCC2=O)cc1,0.937,"0.82 µM [rising, full curve, poor fit]",–
Cc1ccc(Sc2ncccc2COC(=O)NC(C)C)cc1,99.8,"1.3 µM [rising, partial curve]","14.6 µM [rising, partial curve]"
CC(C)(C)N(Cc1ccccc1)C(=O)c1ccncc1,15.5,–,–
Cn1cccc1/C=N/NC(=O)c1ccc(OC(F)(F)C(F)F)cc1,40.1,–,"4.61 µM [rising, partial curve, poor fit]"
COc1ccc(/C(N)=N/OC(=O)Oc2ccccc2)cc1,-78.6,"2.91 µM [falling, partial curve]","7.31 µM [falling, partial curve, poor fit]"

SMILES,cell number change [%],AC50 [1],AC50 [2]
CC(=O)c1ccc(NC(=O)COc2ccccc2C(=O)Nc2ccccc2)cc1,-41.6,"29.1 µM [falling, single point]","29.1 µM [falling, single point]"
C[C@@H](NC(=O)[C@@H]1Cc2ccccc2CN1C(=O)OC(C)(C)C)C(=O)NC1CCCC1,-24.2,"29.1 µM [falling, single point]",–
CCCCCOC(=O)Nc1nnc(CCCCC)s1,–,"6.51 µM [falling, single point]",–
CCN1C(=O)c2cccc3c(S(=O)(=O)NCc4ccccc4)ccc1c23,-37.9,"20.6 µM [falling, single point]","20.6 µM [falling, single point]"
CC(=O)N1CCN(Cc2nc(-c3cccc(Cl)c3)no2)CC1,24.2,–,–
CC(NC(=S)Nc1ccc(OC(F)F)cc1OC(F)F)C(C)(C)C (configuration not stated),-16.1,–,–
COC(=O)CNc1nc(Cl)nc(Nc2ccc(Cl)cc2)n1,-37.1,"6.51 µM [falling, full curve]","4.61 µM [falling, full curve, poor fit]"
CCC(C)c1ccccc1NC(=O)CN(C)CCOc1ccc(Cl)cc1 (configuration not stated),16.7,–,–
CCCCCCCCO,10.7,"0.92 µM [rising, single point]",–
Cc1ccc(/C=N/NC(=O)c2nnn(-c3nonc3N)c2CSc2ccccc2)cc1,14.4,"0.184 µM [rising, full curve, poor fit]","0.0058 µM [rising, full curve, poor fit]"
CCn1c(Cc2cccs2)nnc1SCC(=O)Nc1ccc(OC)c(OC)c1,1.23,"0.651 µM [rising, full curve, poor fit]",–
O=C(Cn1nc(-c2ccccc2F)ccc1=O)NCc1ccc2c(c1)OCO2,13.5,"0.259 µM [rising, full curve]","0.82 µM [rising, partial curve]"
CC(C)c1ccc(NC2CCCN(C(=O)c3cccs3)C2)cc1 (configuration not stated),5.2,"29.1 µM [falling, single point]",–
Cc1ccc(-n2nnnc2-c2cnn(-c3ccc(F)cc3)c2C(F)(F)F)cc1,-24.8,"20.6 µM [falling, partial curve]",–
Cc1cnc(=O)[nH]c1SCc1cccc(C(F)(F)F)c1,-19.1,"1.3 µM [rising, full curve, poor fit]",–
COc1cccc(NS(=O)(=O)c2c(C)cc(C)cc2C)c1,-54.9,"29.1 µM [falling, single point]","29.1 µM [falling, single point]"
C(=C\c1ccccc1)/CSc1nnc(-c2ccncc2)n1Cc1ccco1,22.8,–,"0.731 µM [rising, full curve, poor fit]"
OCCNCCCOc1cc(Cl)ccc1Cl,42.4,–,–
Cc1cccnc1NC(=O)c1ccc(S(=O)(=O)N2CCC(C)CC2)cc1,47.6,–,"16.4 µM [rising, single point]"
